Source: PubChem BioAssay AID1508597 (Cure First, 2020)
Aim: 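Knock-downs altering ovarian cancer cell survival with or without PARP inhibitor rucaparib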 (primary screen). System: human ovarian carcinoma lines grown from tumours: OCI-P5x (papillary serous) and OCI-C5x (clear cell). Knock-down reagent: siRNA pool against human genes, 1.25 pmol siRNA per well. Time to read-out: 72 h or 96 h, depending on the cell culture. Treatment: rucaparib 20 µM (about IC30) or vehicle, present until read-out. Rucaparib or vehicle: Vehicle. Cell line: OCI-P5x (serous). Detection: 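Luminescent ATP-based viability assay read 72 or 96 h after transfection, depending on culture, given as normalised percent viability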. Reading the numbers: viability, normalised: higher = more viable cells remaining. Rule for the call: 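Active when normalised viability falls below 80 percent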. Calls: active = viability under 80%; inactive = viability 80% or more.
Shown is an unselected part of the about 2,100 reagents, under one of the conditions tested. 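Calls flag viability under 80% in either arm, not effects specific to rucaparib; the reference for percent is not stated.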 A number with no mark means an inactive call. Reagents against one gene are numbered here. A reagent listed more than once was tested more than once; the source does not tell the runs apart. No sequences are given here. The record does not give: the 100% reference.

Target gene | reagent | technical replicate | viability, normalised (%)
CSNK1A1L | 1 | 1 | 58.5 (active)
CSNK1A1L | 1 | 2 | 81.2
CSNK1A1L | 1 | 3 | 63.5 (active)
FRK | 1 | 1 | 86.9
FRK | 1 | 2 | 74.6 (active)
FRK | 1 | 3 | 86.3
CRY2 | 1 | 1 | 71.3 (active)
CRY2 | 1 | 2 | 55.5 (active)
CRY2 | 1 | 3 | 73.3 (active)
JAK3 | 1 | 1 | 114
JAK3 | 1 | 2 | 107
JAK3 | 1 | 3 | 111
SPEG | 1 | 1 | 106
SPEG | 1 | 1 | 61.8 (active)
SPEG | 1 | 2 | 64.8 (active)
SPEG | 1 | 2 | 92.5
SPEG | 1 | 3 | 72 (active)
SPEG | 1 | 3 | 81.6
SMPD2 | 1 | 1 | 95.1
SMPD2 | 1 | 2 | 80.5
SMPD2 | 1 | 3 | 56.2 (active)
DMC1 | 1 | 1 | 78.8 (active)
DMC1 | 1 | 2 | 77.8 (active)
DMC1 | 1 | 3 | 66.1 (active)
MRI1 | 1 | 1 | 81.9
MRI1 | 1 | 2 | 93.5
MRI1 | 1 | 3 | 99.5
MAP3K14 | 1 | 1 | 66 (active)
MAP3K14 | 1 | 2 | 49.4 (active)
MAP3K14 | 1 | 3 | 47.7 (active)
FER | 1 | 1 | 84.6
FER | 1 | 2 | 87.8
FER | 1 | 3 | 75 (active)
RAPGEF4 | 1 | 1 | 69.2 (active)
RAPGEF4 | 1 | 2 | 56.9 (active)
RAPGEF4 | 1 | 3 | 55.7 (active)
HELQ | 1 | 1 | 92.4
HELQ | 1 | 2 | 96.5
HELQ | 1 | 3 | 78.6 (active)
HELQ | 2 | 1 | 81.4
HELQ | 2 | 2 | 77.4 (active)
HELQ | 2 | 3 | 77.1 (active)
RCOR1 | 1 | 1 | 34.9 (active)
RCOR1 | 1 | 2 | 45 (active)
RCOR1 | 1 | 3 | 70.1 (active)
PARP6 | 1 | 1 | 41.2 (active)
PARP6 | 1 | 2 | 49.1 (active)
PARP6 | 1 | 3 | 54.5 (active)
TESK1 | 1 | 1 | 66.9 (active)
TESK1 | 1 | 2 | 80.1
TESK1 | 1 | 3 | 104
AGRN | 1 | 1 | 52.9 (active)
AGRN | 1 | 2 | 53.7 (active)
AGRN | 1 | 3 | 59.5 (active)
RSF1 | 1 | 1 | 64.1 (active)
RSF1 | 1 | 2 | 62.9 (active)
RSF1 | 1 | 3 | 76.5 (active)
